Measured values taken from patent publication US6610471B1, “Methods and compositions to investigate infection by hepatitis B virus and agents to prevent and treat the infection” (priority 1998, dated 2003).
For at least one compound, name, drawing or mass did not settle the structure.

Assays:
[1] = system: HBV; assay: HBsAg and HBeAg secreted by HBV baculovirus infected HepG2 cells (radioimmunoassay); type: cell-based, hepatitis B virus; conditions: 0.2 or 2.0 μM 3TC from 24 h p.i., one week, 25 or 50 pfu/cell
[2] = system: Woodchuck Hepatitis Virus (WHV); conditions: Moraleda et al. (1997), cited from earlier work
[3] = system: HBV; assay: Non protein-associated RC and CCC HBV DNA in HBV baculovirus infected HepG2 cells (Southern blot); type: cell-based, hepatitis B virus; conditions: 3TC treatment, 50 pfu/cell
Protocol: On the indicated days (3, 6, and 9 days of drug treatment) HBV replication in HepG2 cultures was assessed by examining extracellular HBV DNA and intracellular replicative intermediates.
(T). […] Relaxed circular (RC) and covalently closed circular (CCC) HBV DNA is indicated. […] A conclusion from these studies is that the HBV baculovirus-HepG2 system can be used to complement other in vitro model systems currently used for testing antiviral compounds.
HepG2 cells were seeded at approximately 20% to 40% confluency and then were grown for 16 to 24 hours before infection. On the day of infection, duplicate plates of cells were trypsinized, and viable cell number was determined with a hemocytometer using Trypan blue exclusion. Average cell counts were calculated and used to determine the volume of high-titer viral stock necessary to infect cells at the indicated moi. Baculovirus was diluted into MEM-FBS to achieve the appropriate moi using volumes of 1.0 and 0.25 mL to infect 100-mm and 35-mm dishes, respectively. […]
Nonprotein-bound circular HBV genomes were extracted from HepG2 cells after infection by a high salt extraction of low molecular weight DNA followed by a phenol and chloroform extraction. […] Samples were analyzed by electrophoresis and Southern blotting. […]

[4] = system: HBV; assay: HBV transcripts in HBV baculovirus infected HepG2 cells (northern blot); type: cell-based, hepatitis B virus; conditions: 0.02, 0.2, 2.0 μM 3TC, 3 and 6 days of treatment, 50 pfu/cell

Nc1ccn([C@@H]2CS[C@H](CO)O2)c(=O)n1 [3TC, (−)-2′-dideoxy-3′-thiacytidine]
effect on levels of extracellular HBeAg [1]: not affected | effect on levels of extracellular HBsAg [1]: not affected | reduction of established pools of WHV CCC DNA ([2]; 2.0 μM 3TC, primary woodchuck hepatocytes): not effective | inhibition of CCC WHV DNA amplification ([2]; primary woodchuck hepatocytes treated with 3TC prior to infection with WHV): 80% | effect on amount of CCC HBV DNA that accumulates during HBV replication [3]: large reduction | effect on levels of HBV transcripts [4]: not affected
